Measurements published in publication PMC6968712 (Drug Delivery, 2019).
HELM strings list residues between dots; [ac] is acetyl, [am] amide, other brackets name non-standard units.

Test: general procedure: Fmoc solid-phase peptide synthesis
Conditions: whole synthesis, analytical RP-HPLC (Waters), C18 column, 5–95% acetonitrile in 0.1% trifluoroacetic acid, scale of the general procedure 0.1 mmol

| Substance | final HPLC purity |
| --- | --- |
| PEPTIDE1{G.I.G.A.V.L.K.V.L.T.T.G.L.P.A.L.I.S.W.I.K.R.K.R.Q.Q.[am]}$$$$V2.0 | 96% |
| PEPTIDE1{R.P.K.P.Q.Q.F.F.G.L.M.[am]}$$$$V2.0 | 97.3% |
| PEPTIDE1{R.P.K.P.W.Q.W.F.W.L.L.[am]}$$$$V2.0 | 98.8% |
| PEPTIDE1{[FITC].[Ahx].R.P.K.P.Q.Q.F.F.G.L.M.[am]}$$$$V2.0 | 95.3% |
| PEPTIDE1{[Stearoyl].[dR].P.K.P.[dW].Q.[dW].F.[dW].L.L.[am]}$$$$V2.0 | 97% |
| PEPTIDE1{[dR].P.K.P.[dW].Q.[dW].F.[dW].L.L.[am]}$$$$V2.0 | 97.4% |
